Results deposited as PubChem BioAssay AID1224826 (NIAID, 2016)
The deposit covers about 17,000 reagents; shown is a part drawn at random. In the full data, about 1,110 (6.6%) are marked active. 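Active means lowered or raised reporter signal; replicate intensities are raw and not normalised per plate.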 Entries without a mark were called inactive. Reagents against one gene are numbered here. Not all columns of the deposit are shown.

Purpose: 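Knock-downs that raise or lower Tnf reporter signal after endotoxin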 (primary screen)
System: RAW264.7 G9 macrophages from mouse bearing reporters for p65 (GFP) and the Tnf promoter (mCherry)
Reagent: siRNA pool against mouse genes, 100 nM
Timing: 16 h of LPS stimulation, after 2 days of siRNA transfection
Treatment: bacterial lipopolysaccharide (Salmonella minnesota R595), 10 ng/ml
Detection: 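Imaged Tnf reporter mCherry in nuclei, minus background, normalised per plate to the median and expressed as robust z-scores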
Direction: Tnf reporter robust z-score: higher = stronger Tnf promoter reporter signal after LPS
Active means: 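a well counts as active at a score of -1.3 or below (Tlr4 knock-down control median) or above 3 (raised signal); controls and wells holding fewer than 50 cells are excluded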
Meaning of the calls: active = Tnf reporter clearly lowered or raised; inactive = no clear change in Tnf reporter

Rundc3a
- Tnf reporter robust z-score: 0.42
- fewer than 50 cells in well: enough cells in well

V1ra8
- Tnf reporter robust z-score: 0.15
- fewer than 50 cells in well: enough cells in well

Syt16
- Tnf reporter robust z-score: 3.68 (active)
- fewer than 50 cells in well: enough cells in well

Prss3b
- Tnf reporter robust z-score: 0.42
- fewer than 50 cells in well: enough cells in well

Pdrg1
- fewer than 50 cells in well: fewer than 50 cells per well; well left out of calls

Kremen2
- Tnf reporter robust z-score: 0.55
- fewer than 50 cells in well: enough cells in well

Nfe2l1
- Tnf reporter robust z-score: -0.08
- fewer than 50 cells in well: enough cells in well

Cct8
- Tnf reporter robust z-score: 0.74
- fewer than 50 cells in well: enough cells in well

Tfap2c
- Tnf reporter robust z-score: -0.31
- fewer than 50 cells in well: enough cells in well

Ifna7
- Tnf reporter robust z-score: -0.17
- fewer than 50 cells in well: enough cells in well

Ndnf
- Tnf reporter robust z-score: -1.01
- fewer than 50 cells in well: enough cells in well

Or9g4b
- Tnf reporter robust z-score: 0.13
- fewer than 50 cells in well: enough cells in well

Rmi1
- Tnf reporter robust z-score: 3.07 (active)
- fewer than 50 cells in well: enough cells in well

Pdzd7
- Tnf reporter robust z-score: 1.38
- fewer than 50 cells in well: enough cells in well

Prss44
- Tnf reporter robust z-score: 0.86
- fewer than 50 cells in well: enough cells in well

Klk1b11
- Tnf reporter robust z-score: 0.9
- fewer than 50 cells in well: enough cells in well

Msrb3
- Tnf reporter robust z-score: 1.2
- fewer than 50 cells in well: enough cells in well

Rad9b #1
- Tnf reporter robust z-score: -1.21
- fewer than 50 cells in well: enough cells in well

Rad9b #2
- Tnf reporter robust z-score: 1.24
- fewer than 50 cells in well: enough cells in well

Pyy
- Tnf reporter robust z-score: -0.03
- fewer than 50 cells in well: enough cells in well

Fgf9
- Tnf reporter robust z-score: -0.79
- fewer than 50 cells in well: enough cells in well

Records listed so far marked active:
Syt16
- Tnf reporter robust z-score: 3.68 (active)
- fewer than 50 cells in well: enough cells in well

Rmi1
- Tnf reporter robust z-score: 3.07 (active)
- fewer than 50 cells in well: enough cells in well
